PubChem BioAssay AID504784 – Drosophila RNAi Screening Center | 2011

Purpose: 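Search for regulators of lipid droplet storage in oleate-fed fly cells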 (primary screen)
Cells: Drosophila Kc167 embryonic cells
Knock-down reagent: long dsRNA against Drosophila genes, about 250 ng dsRNA per well
Duration: 4 days
Treatment: cells fed 400 µM oleic acid bound to BSA
Measured: 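Cells imaged and segmented; ratio of lipid droplet area to nuclear area, log-transformed, then normalised as a B-score over the screen; higher means more stored lipid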
Direction: droplet/nuclear area B-score: higher = more stored lipid (overstorage)
In all, the deposit lists about 17,000 reagents; this is an unselected part of those that have a named target and a result. 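Each column is one replicate's B-score; the combined score over replicates was not deposited, so single values may mislead.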 The numbers tell different reagents against one gene apart.

target gene,reagent no.,"droplet/nuclear area B-score, replicate 1","droplet/nuclear area B-score, replicate 2"
tara (taranis),1,-0.118,1.47
tara (taranis),2,0.322,-0.327
CG18508,1,0.287,-1.3
Mitf,1,-0.175,-0.325
Mitf,2,1.16,-0.728
CG6701,1,-5.02,0.661
Top3alpha (Topoisomerase 3alpha),1,-1.47,-0.222
"betaNACtes2 (Nascent-associated complex beta-subunit-like, testis 2)",1,-1.51,-1.17
"ATPsynGL (ATP synthase, subunit G-like)",1,-0.023,0.035
Drsl5 (Drosomycin-like 5),1,0.189,-0.0602
Pdcd4 (Programmed cell death 4),1,2.2,1.01
CenG1A (Centaurin gamma 1A),1,-0.526,-1.09
CenG1A (Centaurin gamma 1A),2,0.516,-0.39
CenG1A (Centaurin gamma 1A),3,-1.44,3.58
CG13287,1,-1.52,-1.29
CR11023 (pseudo),1,-0.00585,-0.00408
beat-IIIb (beaten path IIIb),1,-1.29,-1.18
CG12241,1,0.0591,1.01
CG14069,1,-0.767,0.111
CG30278,1,-0.12,-0.0325
CG12994,1,1.31,-5
Cpr49Aa (Cuticular protein 49Aa),1,0.812,0.888
M6,1,-0.921,-0.591
UQCR-6.4 (Ubiquinol-cytochrome c reductase 6.4 kDa subunit),1,0.0104,4.34
CG12560,1,-1.93,-0.372
mri (mrityu),1,0.474,0.789
Nup154 (Nucleoporin 154kD),1,-0.905,-0.27
CG3777,1,-1.23,-0.0853
Syn (Synapsin),1,-0.76,-0.824
CG31674,1,-0.672,-1.52
atlas,1,-1.9,-0.0241
msopa (male-specific opa containing gene),1,-2.67,-1.4
msopa (male-specific opa containing gene),2,-1.16,-0.0598
CG4962,1,0.418,1.82
